Measured values as given in the supplement of paper PMC7661543.
± gives the standard deviation of the averaged measurements. Differences between knockout arms are mostly noise.

Tested on: HCC-38
Assay: relative cell number vs DMSO control (72 h) (% of DMSO); higher = less growth inhibition (more cells)
Description: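 QMAP-Seq: a pool of 5 breast cancer cell lines (ZR-75-1, SKBR3, HCC-38, MDA-MB-231, BT-20), each carrying 12 doxycycline-inducible Cas9 sgRNA perturbations (11 knockouts plus non-targeting sgNT), was treated with compounds for 72 h at four 10-fold doses (10 nM-10 uM or 1 nM-1 uM range). Barcodes were amplified and sequenced, and cell number was interpolated from 293T spike-in standard curves. The result is expressed as % of the median of DMSO wells. Two biological replicates.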

CCC[C@H](NC(=O)/C(C#N)=C/c1cccc(Br)n1)c1ccccc1 [WP1130]
Conditions	relative cell number
sgRNA knockout: sgATF3, 10 nM	93.3 ± 4.2
sgRNA knockout: sgATF3, 100 nM	99.2 ± 6.3
sgRNA knockout: sgATF3, 1000 nM	76 ± 7.5
sgRNA knockout: sgATF3, 10000 nM	7.06 ± 0.59
sgRNA knockout: sgATF4, 10 nM	91.3 ± 20
sgRNA knockout: sgATF4, 100 nM	106 ± 3.3
sgRNA knockout: sgATF4, 1000 nM	78.4 ± 6.2
sgRNA knockout: sgATF4, 10000 nM	6.4 ± 0.85
sgRNA knockout: sgATF6, 10 nM	101 ± 3.4
sgRNA knockout: sgATF6, 100 nM	109 ± 5.4
sgRNA knockout: sgATF6, 1000 nM	89.8 ± 9.2
sgRNA knockout: sgATF6, 10000 nM	6.39 ± 0.36
sgRNA knockout: sgATG7, 10 nM	91.1 ± 2.2
sgRNA knockout: sgATG7, 100 nM	96.6 ± 7.2
sgRNA knockout: sgATG7, 1000 nM	88.5 ± 13
sgRNA knockout: sgATG7, 10000 nM	7.46 ± 0.13
sgRNA knockout: sgERN1, 10 nM	104 ± 11
sgRNA knockout: sgERN1, 100 nM	103 ± 8.2
sgRNA knockout: sgERN1, 1000 nM	88.5 ± 7.7
sgRNA knockout: sgERN1, 10000 nM	8.46 ± 0.52
sgRNA knockout: sgHSF1, 10 nM	102 ± 8.9
sgRNA knockout: sgHSF1, 100 nM	80.73 ± 0.68
sgRNA knockout: sgHSF1, 1000 nM	111 ± 17
sgRNA knockout: sgHSF1, 10000 nM	6.7 ± 1.4
sgRNA knockout: sgHSF2, 10 nM	102 ± 1.8
sgRNA knockout: sgHSF2, 100 nM	102 ± 7.5
sgRNA knockout: sgHSF2, 1000 nM	96.2 ± 2.3
sgRNA knockout: sgHSF2, 10000 nM	7.74 ± 2
sgRNA knockout: sgKEAP1, 10 nM	104 ± 6.5
sgRNA knockout: sgKEAP1, 100 nM	105 ± 1.1
sgRNA knockout: sgKEAP1, 1000 nM	85 ± 29
sgRNA knockout: sgKEAP1, 10000 nM	9.25 ± 4.5
sgRNA knockout: sgNFE2L2, 10 nM	84.2 ± 14
sgRNA knockout: sgNFE2L2, 100 nM	111 ± 5.3
sgRNA knockout: sgNFE2L2, 1000 nM	80 ± 16
sgRNA knockout: sgNFE2L2, 10000 nM	7.1 ± 1.7
sgRNA knockout: sgSLC35F2, 10 nM	87.2 ± 4.9
sgRNA knockout: sgSLC35F2, 100 nM	104 ± 8.7
sgRNA knockout: sgSLC35F2, 1000 nM	83.5 ± 0.85
sgRNA knockout: sgSLC35F2, 10000 nM	6.97 ± 1.7
sgRNA knockout: sgXBP1, 10 nM	87.8 ± 4
sgRNA knockout: sgXBP1, 100 nM	112 ± 10
sgRNA knockout: sgXBP1, 1000 nM	86.9 ± 10
sgRNA knockout: sgXBP1, 10000 nM	7.86 ± 1.6
